Results are given in words; binding and its absence hold for the method and conditions named. For some assays here: A result given as binding can be weak or reduced; the word gives no strength.
B1: hJEV-11 (antibody, V domains shown)
VH: EVQLVESGGGLVQPGGSLRLSCAASGFTFSSYAMSWVRQAPGKGLEWVSVSGSAGATTYYADSVKGRFTISRDNSKNTLYLQMNSLRAEDTAVYYCAKDEWDYDYIWGSYRYWGQGTLVTVSS
VL: DIQMTQSPSSLSASVGDRVTITCRTSQSIGRYLNWYQQKPGKAPKLLIFAASSLQSGVPSRFSGSGSGTDFTLTISSLQLEDFATYYCQQTYITLMYTFGQGTKLEIK
B2: hJEV-80 (antibody, V domains shown)
VH: QVQLQESGPGLVKPSETLSLTCTVSGGSISSYYWSWIRQSPGKGLECIGYIFYSGSTNYNPSLKSRVTISVDASKNQFSLKLRSVTAADTAVYYCARVLGRMSFDHWGQGTPVTVSS
VL: SYVLTQPPSVSVAPGQTARITCGGNNIGSKSVHWYQQKSGQAPVLVVYNDRDRPSGIPERFSGSNSGNTASLTISRVEAGDEADYYCQVWDNGSDHYFFGTGTKVTVL
B3: hJEV-69 (antibody, V domains shown)
VH: QVQLQESGPGLVKPSETLSLTCSVSGDSVSSANHYWTWVRQPPGKGLEWIGYMYHSGSTNFHPSLKSRVTISVDKSKNQFSLKLTSVTAADSAVYYCARVDAVMEYYYESGTAPGAFDIWGQGIMVTVSS
VL: DIVMTQSPDSLAVSLGERATINCKSSQSVLYRNNNKNYLAWYQHKPGQSPKLLIYWASTRESGVPDRFSGSGSGTDFTLTISSLQAEDVAVYYCHQYYSTPYTFGQGTKLEIK
B4: hJEV-75 (antibody, V domains shown)
VH: QLQLQESGPGLVKPSETLSLTCTVSGGSISSTSYYWGWIRQSPGKGLEWIGSIFNNGRTFYNPSLKSRVTISVDTSKNQFSLKLSSVSAADTAIFYCARHLMYSTSSTDAFDIWGHGTMVTVSS
VL: QSALTQPASVSGSPGQSITMSCTGTSSDVGDYNLLSWYQHHPGKAPKLMIYEGSKRPSGVSNRFSGSKSGNTASLTISGLQAEDEADYYCCSYAGSSTWVFGGGTKLTVL

How the values were obtained:
[1] = molecular target: WNV E ectodomain protein (West Nile virus); assay: ELISA on coated recombinant protein, mAb at 1 µg/ml
[2] = molecular target: WNV E ectodomain protein (West Nile virus); assay: ELISA cross-reactivity (Table A, cross-reactivity column; head missing)
[3] = molecular target: ZIKV E ectodomain protein (Zika virus); assay: ELISA on coated recombinant protein
[4] = molecular target: WNV E ectodomain protein (West Nile virus); assay: ELISA on coated recombinant protein

Binder	binding [1]	binding [2]	binding [3]	binding [4]
B1	binds	binds		
B2	binds	binds		
B3			no binding (tested: 1 µg/ml)	no binding (tested: 1 µg/ml)
B4			no binding (tested: 1 µg/ml)	no binding (tested: 1 µg/ml)
